Laboratory results reported in PMC6397292.
No constants are given. Whether binding was seen depends on the method and setting. In cells and extracts the contact can be indirect. Some binding calls cover weakened binding; strength is not graded here.

Chains of the proteins cited; added tags and fusions are not shown.
UniProt Q15554: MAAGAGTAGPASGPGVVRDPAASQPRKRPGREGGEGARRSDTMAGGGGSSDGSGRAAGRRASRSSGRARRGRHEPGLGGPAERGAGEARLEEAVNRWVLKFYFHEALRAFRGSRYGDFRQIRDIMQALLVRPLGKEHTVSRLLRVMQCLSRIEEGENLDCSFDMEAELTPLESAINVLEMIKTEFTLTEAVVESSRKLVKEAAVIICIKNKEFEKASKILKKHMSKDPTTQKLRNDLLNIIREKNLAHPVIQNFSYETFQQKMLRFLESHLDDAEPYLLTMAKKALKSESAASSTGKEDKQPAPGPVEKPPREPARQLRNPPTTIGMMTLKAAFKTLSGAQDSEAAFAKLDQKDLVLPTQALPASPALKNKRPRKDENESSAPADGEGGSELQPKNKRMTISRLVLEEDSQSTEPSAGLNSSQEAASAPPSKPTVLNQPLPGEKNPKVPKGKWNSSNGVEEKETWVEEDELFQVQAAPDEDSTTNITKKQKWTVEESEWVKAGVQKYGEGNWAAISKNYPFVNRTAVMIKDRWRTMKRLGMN
UniProt P54274: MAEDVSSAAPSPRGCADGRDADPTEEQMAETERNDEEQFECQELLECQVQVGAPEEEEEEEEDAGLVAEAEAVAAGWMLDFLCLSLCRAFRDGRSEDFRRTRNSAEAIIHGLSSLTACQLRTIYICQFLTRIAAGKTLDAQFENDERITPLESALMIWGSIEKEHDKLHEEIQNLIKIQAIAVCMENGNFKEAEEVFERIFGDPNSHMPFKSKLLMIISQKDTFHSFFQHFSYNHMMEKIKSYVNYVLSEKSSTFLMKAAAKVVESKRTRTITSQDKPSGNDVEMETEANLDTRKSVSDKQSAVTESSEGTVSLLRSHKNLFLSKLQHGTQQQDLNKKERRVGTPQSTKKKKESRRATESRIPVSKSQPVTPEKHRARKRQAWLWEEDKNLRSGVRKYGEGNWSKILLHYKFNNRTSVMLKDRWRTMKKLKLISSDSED

How the values were obtained:
[1] = biological target: telomere repeat binding factor 2 (TRF2) (UniProt Q15554); assay: co-IP; immunoprecipitation experiments; cells and bait not stated
[2] = biological target: telomere repeat binding factor 1 (TRF1) (UniProt P54274); assay: as above

B1: Non-POU domain-containing octamer-binding protein (NONO) (protein, UniProt Q15233 1-471)
chain: MQSNKTFNLEKQNHTPRKHHQHHHQQQHHQQQQQQPPPPPIPANGQQASSQNEGLTIDLKNFRKPGEKTFTQRSRLFVGNLPPDITEEEMRKLFEKYGKAGEVFIHKDKGFGFIRLETRTLAEIAKVELDNMPLRGKQLRVRFACHSASLTVRNLPQYVSNELLEEAFSVFGQVERAVVIVDDRGRPSGKGIVEFSGKPAARKALDRCSEGSFLLTTFPRPVTVEPMDQLDDEEGLPEKLVIKNQQFHKEREQPPRFAQPGSFEYEYAMRWKALIEMEKQQQDQVDRNIKEAREKLEMEMEAARHEHQVMLMRQDLMRRQEELRRMEELHNQEVQKRKQLELRQEEERRRREEEMRRQQEEMMRRQQEGFKGTFPDAREQEIRMGQMAMGGAMGINNRGAMPPAPVPAGTPAPPGPATMMPDGTLGLTPPTTERFGQAATMEGIGAIGGTPPAFNRAAPGAEFAPNKRRRY
In the case of B1, the binding [1] is reported as “binds” and the binding [2] is reported as “binds”.
